This is an account of results in patent US20230086069A1.

No constants are given. Whether binding was seen depends on the method and setting. Some results given as binding are weak or reduced against the parent protein; the word gives no strength.

The target of assay [1] is rhesus CD19 on cells (CD20+ B cells of rhesus PBMC) (rhesus) (UniProt F7F486). Briefly: flow cytometry on PBMC, CD20+ B cells gated. In general terms: In flow cytometry, cells or beads pass a laser one at a time.
The target is the same in assay [2]. Briefly: flow cytometry, gMFI of labelled antibody on CD20+ gated lymphocytes of rhesus PBMC.
The target is the same in assay [3]. Briefly: flow cytometry, APC channel histograms of labelled antibody on CD20+ gated lymphocytes of rhesus PBMC.

B1: SI-63C1 (recombinant chimeric mAb with BU12 mouse parental anti-CD19 variable sequence) (antibody, V domains shown)
VH: QVTLKESGPGILQPSQTLSLTCSFSGFSLSTSGMGVGWIRQPSGKGLEWLAHIWWDDDKRYNPALKSRLTISKDTSSNQVFLKIASVDTADTAAYYCARMELWSYYFDYWGQGTTLTVSS
VL: ENVLTQSPAIMSASPGEKVTMTCSASSSVSYMHWYQQKSSTSPKLWIYDTSKLASGVPGRFSGSGSGNSHFLTISSMEAEDVATYYCFQGSVYPFTFGSGTKLEIKR
As for B1, the binding result in assay [1] and in assay [2] was “binds” each time.

B2: SI-63C2 (recombinant mAb with H1 humanized anti-CD19 variable sequence) (antibody, V domains shown)
VH: QVTLKESGPGLVQPGQTLRLTCAFSGFSLSTSGMGVGWIRQPPGKGLEWLAHIWWDDDKRYNPALKSRLTISKDTSKNQVYLQMNSLDAEDTAVYYCARMELWSYYFDYWGQGTLVTVSS
VL: ENVLTQSPASLSASPGERVTITCSASSSVSYMHWYQQKPGQAPKLWIYDTSKLASGVPSRFSGSGSGNDHTLTISSMEPEDFATYYCFQGSVYPFTFGQGTKLEIKR
Regarding B2, the binding entry in assay [1], in assay [3] and in assay [2] was “binds” throughout.
